At least one compound was matched to its structure with a doubt left.
Test: Dissolution test
Type: physicochemical
Conditions: 2.2 g in injectable water 10 mL, shaken; mean of three; printed as minutes and seconds
Procedure: As test substances, the V type crystal (Example 1), the VI type crystal (Example 2) and the amorphous body (Comparative example 1) were used.
Test substance 2.2 g was put in a C2 vial made by Daiichi Glass Co., Ltd., injectable water 10 mL was added to the vial, the vial was fixed laterally and was shaken by MRK incubator-shaker (4 cm of shaking width, 48 times/minute of shaking rate).
Complete dissolution was judged by an unaided eye, and the length of time to need for the complete dissolution was measured.
The test was carried out at three times respectively, and those mean values were assumed to the dissolution time.

For `CCN1CCN(C(=O)N[C@@H](C(=O)N[C@@H]2C(=O)N3[C@@H]2SC(C)(C)[C@@H]3C(=O)[O-])c2ccccc2)C(=O)C1=O.[Na+]` [Comparative example 1, piperacillin sodium], the Dissolution time was 5 min and 0.167 min.

From patent publication US20100063273A1, “NOVEL CRYSTAL OF PIPERACILLIN SODIUM” (Toyama Chemical Co., Ltd, priority 2007, published 2010)
